Data: PMC4287435
No constants are given. Whether binding was seen depends on the method and setting. For some assays here: Binding seen in cells or lysates may run through a third protein. Some results given as binding are weak or reduced against the parent protein; the word gives no strength. Sequences can lack the tags named with a protein.

T1: ROS1-Nluc (Arabidopsis) (UniProt Q9SJQ6)
T1 sequence: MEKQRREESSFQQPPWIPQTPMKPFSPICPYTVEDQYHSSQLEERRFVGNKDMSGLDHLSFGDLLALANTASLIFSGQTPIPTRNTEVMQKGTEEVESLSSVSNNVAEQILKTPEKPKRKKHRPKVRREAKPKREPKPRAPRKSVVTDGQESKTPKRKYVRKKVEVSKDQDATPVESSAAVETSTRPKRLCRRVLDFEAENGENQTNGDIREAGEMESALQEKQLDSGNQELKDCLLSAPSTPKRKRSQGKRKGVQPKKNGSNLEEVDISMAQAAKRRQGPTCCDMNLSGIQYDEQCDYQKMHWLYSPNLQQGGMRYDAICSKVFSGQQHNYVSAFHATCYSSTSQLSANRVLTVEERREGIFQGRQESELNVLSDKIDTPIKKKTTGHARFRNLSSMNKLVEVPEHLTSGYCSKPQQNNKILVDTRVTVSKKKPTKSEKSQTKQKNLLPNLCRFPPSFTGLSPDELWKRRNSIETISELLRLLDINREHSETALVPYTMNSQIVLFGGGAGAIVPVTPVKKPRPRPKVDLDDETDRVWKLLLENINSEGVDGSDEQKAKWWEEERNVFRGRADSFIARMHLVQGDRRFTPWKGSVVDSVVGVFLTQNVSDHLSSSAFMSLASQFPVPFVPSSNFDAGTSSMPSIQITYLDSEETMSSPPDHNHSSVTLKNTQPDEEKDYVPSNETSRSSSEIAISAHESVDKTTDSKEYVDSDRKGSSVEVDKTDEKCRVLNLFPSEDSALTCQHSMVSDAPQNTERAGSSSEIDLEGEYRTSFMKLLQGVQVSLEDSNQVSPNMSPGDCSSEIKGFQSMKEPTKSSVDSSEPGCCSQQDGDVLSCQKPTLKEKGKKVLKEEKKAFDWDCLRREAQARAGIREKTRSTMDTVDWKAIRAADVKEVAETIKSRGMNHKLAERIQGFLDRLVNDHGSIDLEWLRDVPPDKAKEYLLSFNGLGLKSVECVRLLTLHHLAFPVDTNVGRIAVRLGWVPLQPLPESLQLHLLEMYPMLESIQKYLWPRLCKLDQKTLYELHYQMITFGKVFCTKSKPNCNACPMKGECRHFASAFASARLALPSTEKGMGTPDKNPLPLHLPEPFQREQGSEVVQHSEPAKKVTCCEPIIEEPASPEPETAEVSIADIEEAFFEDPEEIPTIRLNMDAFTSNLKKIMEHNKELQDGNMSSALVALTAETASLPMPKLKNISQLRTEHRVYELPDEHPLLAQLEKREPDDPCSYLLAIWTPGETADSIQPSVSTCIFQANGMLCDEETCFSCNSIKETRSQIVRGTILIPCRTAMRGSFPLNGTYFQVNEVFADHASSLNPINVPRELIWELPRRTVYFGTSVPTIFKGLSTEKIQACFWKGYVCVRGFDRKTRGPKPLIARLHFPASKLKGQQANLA

T2: MBP-APE1L fusion protein (Arabidopsis APE1L, full length) (Arabidopsis) (UniProt Q5XF07)
T2 sequence: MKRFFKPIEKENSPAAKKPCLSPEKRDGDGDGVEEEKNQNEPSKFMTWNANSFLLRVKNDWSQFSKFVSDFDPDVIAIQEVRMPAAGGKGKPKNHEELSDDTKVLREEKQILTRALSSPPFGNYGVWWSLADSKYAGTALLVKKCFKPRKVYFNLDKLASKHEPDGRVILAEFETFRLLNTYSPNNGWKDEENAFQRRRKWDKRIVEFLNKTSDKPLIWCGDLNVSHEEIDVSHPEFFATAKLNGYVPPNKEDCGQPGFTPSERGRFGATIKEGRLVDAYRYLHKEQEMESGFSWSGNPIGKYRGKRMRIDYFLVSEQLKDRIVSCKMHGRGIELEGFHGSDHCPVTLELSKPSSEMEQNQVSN


What was measured:
ROS1-Nluc (Arabidopsis) = biological target: T1, ROS1-Nluc (Arabidopsis); assay: split reporter; firefly luciferase complementation imaging in Nicotiana benthamiana leaves; APE1L-Cluc and ROS1-Nluc co-transformed with p19; imaged after 3 d with 1 mM luciferin
[1] = biological target: T2, MBP-APE1L fusion protein (Arabidopsis APE1L, full length) (Arabidopsis); assay: pull-down; MBP or MBP-APE1L (200 pmol) bound to amylose resin; His-ROS1 (15 pmol) incubated 1 h at 25°C in Binding Buffer (10 mM Tris pH 8.0, 1 mM DTT, 0.01 mg/ml BSA); Western blot with anti-His6; both purified

binding (ROS1-Nluc (Arabidopsis)) | binding [1] | Binder
binds |  | APE1L-Cluc (enzyme, UniProt Q5XF07 1-364) MKRFFKPIEKENSPAAKKPCLSPEKRDGDGDGVEEEKNQNEPSKFMTWNANSFLLRVKNDWSQFSKFVSDFDPDVIAIQEVRMPAAGGKGKPKNHEELSDDTKVLREEKQILTRALSSPPFGNYGVWWSLADSKYAGTALLVKKCFKPRKVYFNLDKLASKHEPDGRVILAEFETFRLLNTYSPNNGWKDEENAFQRRRKWDKRIVEFLNKTSDKPLIWCGDLNVSHEEIDVSHPEFFATAKLNGYVPPNKEDCGQPGFTPSERGRFGATIKEGRLVDAYRYLHKEQEMESGFSWSGNPIGKYRGKRMRIDYFLVSEQLKDRIVSCKMHGRGIELEGFHGSDHCPVTLELSKPSSEMEQNQVSN
 | binds | His-tagged ROS1 (His-ROS1) (enzyme, UniProt Q9SJQ6 1-1393) MEKQRREESSFQQPPWIPQTPMKPFSPICPYTVEDQYHSSQLEERRFVGNKDMSGLDHLSFGDLLALANTASLIFSGQTPIPTRNTEVMQKGTEEVESLSSVSNNVAEQILKTPEKPKRKKHRPKVRREAKPKREPKPRAPRKSVVTDGQESKTPKRKYVRKKVEVSKDQDATPVESSAAVETSTRPKRLCRRVLDFEAENGENQTNGDIREAGEMESALQEKQLDSGNQELKDCLLSAPSTPKRKRSQGKRKGVQPKKNGSNLEEVDISMAQAAKRRQGPTCCDMNLSGIQYDEQCDYQKMHWLYSPNLQQGGMRYDAICSKVFSGQQHNYVSAFHATCYSSTSQLSANRVLTVEERREGIFQGRQESELNVLSDKIDTPIKKKTTGHARFRNLSSMNKLVEVPEHLTSGYCSKPQQNNKILVDTRVTVSKKKPTKSEKSQTKQKNLLPNLCRFPPSFTGLSPDELWKRRNSIETISELLRLLDINREHSETALVPYTMNSQIVLFGGGAGAIVPVTPVKKPRPRPKVDLDDETDRVWKLLLENINSEGVDGSDEQKAKWWEEERNVFRGRADSFIARMHLVQGDRRFTPWKGSVVDSVVGVFLTQNVSDHLSSSAFMSLASQFPVPFVPSSNFDAGTSSMPSIQITYLDSEETMSSPPDHNHSSVTLKNTQPDEEKDYVPSNETSRSSSEIAISAHESVDKTTDSKEYVDSDRKGSSVEVDKTDEKCRVLNLFPSEDSALTCQHSMVSDAPQNTERAGSSSEIDLEGEYRTSFMKLLQGVQVSLEDSNQVSPNMSPGDCSSEIKGFQSMKEPTKSSVDSSEPGCCSQQDGDVLSCQKPTLKEKGKKVLKEEKKAFDWDCLRREAQARAGIREKTRSTMDTVDWKAIRAADVKEVAETIKSRGMNHKLAERIQGFLDRLVNDHGSIDLEWLRDVPPDKAKEYLLSFNGLGLKSVECVRLLTLHHLAFPVDTNVGRIAVRLGWVPLQPLPESLQLHLLEMYPMLESIQKYLWPRLCKLDQKTLYELHYQMITFGKVFCTKSKPNCNACPMKGECRHFASAFASARLALPSTEKGMGTPDKNPLPLHLPEPFQREQGSEVVQHSEPAKKVTCCEPIIEEPASPEPETAEVSIADIEEAFFEDPEEIPTIRLNMDAFTSNLKKIMEHNKELQDGNMSSALVALTAETASLPMPKLKNISQLRTEHRVYELPDEHPLLAQLEKREPDDPCSYLLAIWTPGETADSIQPSVSTCIFQANGMLCDEETCFSCNSIKETRSQIVRGTILIPCRTAMRGSFPLNGTYFQVNEVFADHASSLNPINVPRELIWELPRRTVYFGTSVPTIFKGLSTEKIQACFWKGYVCVRGFDRKTRGPKPLIARLHFPASKLKGQQANLA
